PubChem BioAssay AID504706 (National Center for Advancing Translational Sciences (NCATS), 2011)
Screen size: about 320,000 compounds; about 200 (0.062%) were called active. Not shown: some 6% with an inconclusive outcome. Calls follow the shape of the dose curve; as a rule, active = well fitted activation curve with a large enough effect; inconclusive = small, poorly fitted or top-dose-only effect; inactive = no such curve, though single readings can be large or run the other way. This is a selection; strong and weak results do not stand in their true shares. Where no call is shown, the source filed none.

experiment: qHTS assay for re-activators of p53 using a Luc reporter; settings: H1299 p53-A138V BP100-luciferase reporter, luminescence, 24 h; activity change, positive = activation: at 92.2 µM (top of the series); also: nearly all actives have a fitted effect of over 45% in size; as to activity change, positive = activation: % of control where 0% means no effect
Procedure, shortened: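 p53-null H1299 cells stably carrying temperature-sensitive p53-A138V and a BP100-luciferase reporter were pinned with compounds (4-point, 1:5 series) and held 24 hrs at 37 deg C. Luminescence was read 10 min after detection reagent.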
Potency is read from the fitted curve at half-maximal effect.

SMILES	activity change, positive = activation	Potency
COc1ccc(-c2nc3ccc([N+](=O)[O-])cc3[nH]2)cc1	128%	
CCCOc1ccc(-c2nnc(-c3cccs3)o2)cc1	64.5%	
COC(=O)CSc1nc2cc(C)ccc2cc1C#N	210%	
COc1ccc(C(=O)Nc2ccc3c(c2)OCCO3)cc1	41%	
CCN(CC)c1ccc(NC2=C(Cl)C(=O)c3ccccc3C2=O)cc1	inactive: -36.1%	
Cc1cc(C)nc(SCc2ccc(C(=O)NNC(=O)Nc3cccc(Cl)c3)cc2)n1	inactive: -32.3%	
COc1ccccc1NC(=O)c1sc(Cl)nc1C	inactive: -62.4%	
CC1=NN(C(N)=S)C(=O)C1N=Nc1ccc(Cl)cc1 (configuration not stated)	48.6%	
c1ccc2c(c1)Cc1cc3ccccc3nc1-2	35.7%	
CCCCOC(=O)Nc1ccc2c(C)cc(=O)oc2c1	37.4%	
COc1ccc(-c2csc(NC(=O)c3ccccc3NS(=O)(=O)c3ccc(C)cc3)n2)cc1	40.1%	
Cc1cc(C)c2nc(NC(=O)c3ccco3)sc2c1	54.2%	
Cc1ccc2nc(SCn3nnc4ccccc4c3=O)[nH]c2c1	94.4%	
CN(c1ccc(C(=O)COC(=O)C2CC2)cc1)S(C)(=O)=O		active: 35.5 µM
COc1ccc(N(C(=O)c2ccco2)C(C(=O)NC2CCCC2)c2cc(OC)c(OC)c(OC)c2)cc1 (configuration not stated)	42.3%	
CCOc1ccc(NC(=O)c2ccccc2O)cc1	64.5%	
COc1ccc2cc(S(=O)(=O)N3CCCCC3)ccc2c1S(=O)(=O)N1CCCCC1	inactive: -6.92%	
OC(COc1ccc2cc(Br)ccc2c1)CN1CCCC1 (configuration not stated)	-46.1%	
Cc1ccc(NC(=O)/C=C/c2ccc3c(c2)OCO3)nc1	97.5%	
Cc1ccc(NCc2nc3ccccc3n2C)cc1	53.6%	
CCOc1ccc(N2C(=O)CC(N)C2=O)cc1 (configuration not stated)	inactive: -35.1%	
CCOc1ccc(NC(=O)c2ccco2)c([N+](=O)[O-])c1		active: 4.47 µM
CN(CC(=O)Nc1ccccc1Br)C(=O)c1ccccc1-c1nc2ccccc2s1	inactive: -39.2%	
CCCc1ccc(-c2cc(C(=O)Nc3ccc([N+](=O)[O-])cn3)c3ccccc3n2)cc1	51.6%	

SMILES	activity change, positive = activation	Potency
Clc1ccccc1Nc1nnc(-c2ccncc2)s1	48.9%	
Oc1[nH]c2ccccc2c1C=Nc1ccc2c(c1)OCCO2	82.1%	
CCCOc1ccc(/C=N/Nc2ccccc2[N+](=O)[O-])c(O)c1	29%	
O=S(=O)(c1ccc2nc(-c3ccco3)c(-c3ccco3)nc2c1)N1CCOCC1	inactive: -36.8%	
CCn1c(C(C)NC(=O)c2ccc(OC)c(OC)c2)nc2ccccc21 (configuration not stated)	53.4%	
O=C(c1cnn(-c2ccccc2)c1)c1ccccc1O	161%	
COCCn1c(C)cc(C(=O)COC(=O)c2cccnc2SC)c1C	29.9%	
COC(=O)CSc1nc2cc(OC)ccc2cc1C#N	65.9%	
O=[N+]([O-])c1ccc(NNC(=S)Nc2ccc(F)cc2)cc1		active: 28.2 µM
COc1ccccc1C(=O)NC(=S)NNC(=O)c1sc2ccccc2c1Cl	39.6%	
Cc1cc(C(F)(F)F)c(C#N)c(SCC(=O)Nc2nc3ccccc3s2)n1	-22%	
C/C(=N\NC(=O)c1cc2c(s1)CCC(C)C2)c1ccc[nH]1 (configuration not stated)	55.7%	
CCn1nnnc1SCC(=O)N1c2ccccc2Sc2ccccc21	44%	
Cc1[nH]n(-c2ncc(-c3ccccc3)s2)c(=O)c1C(c1ccc(Br)cc1)C(C#N)C#N (configuration not stated)	30.1%	
NS(=O)(=O)c1ccc2nc(NC(=O)Nc3ccccc3F)sc2c1	68.1%	
CSc1ccccc1-c1nc(-c2ccncc2)no1	32.8%	
COc1ccccc1-c1cc(C(=O)N2CCCCC2)no1	44.3%	
Cc1ccccc1NC(=O)N1CCCC(c2nc(-c3ccc(C(C)C)cc3)no2)C1 (configuration not stated)		active: 44.7 µM
CCOC(=O)C1=C(C)NC(SCC(=O)Nc2nc(C)cs2)=C(C#N)C1c1cccs1 (configuration not stated)	inactive: -56.4%	
Cc1ccc(-c2nnc(Oc3cccc(C)c3)c3ccccc23)cc1	83.5%	
Clc1ccc(CSc2snnc2-c2ccccc2)c(Cl)c1		active: 39.8 µM
O=c1c2ccccc2nc(SCc2cccc(F)c2)n1C1CCCC1	inactive: -33.8%	
COc1ccccc1Nc1nc(C)cs1	inactive: 17.9%	
Cc1cc(/C=C2/C(=O)NN(c3ccccc3)C2=O)c(C)n1-c1cccc(O)c1	162%	

SMILES	activity change, positive = activation	Potency
CC(C)CN1CCC(Oc2cccc(C(=O)NCCc3ccccc3)c2)CC1		active: 39.8 µM
Cc1nc(-c2ccc(NC(=O)c3cccs3)cc2)cs1	60.5%	
Cc1cccc(N2CCN(c3cc(C)nc4nnnn34)CC2C)c1 (configuration not stated)	inactive: 7.44%	
CCc1nn2cc(-c3ccccc3)nc2s1	inactive: -21.4%	
COc1ccc(C(=O)Nc2cc(C(=O)c3ccccc3)c(C)oc2=O)cc1	inactive: -58.3%	
O=C1CCCN1CCC(=O)N1CCCC(CO)(Cc2ccccc2)C1 (configuration not stated)		active: 28.2 µM
O=C(c1ccco1)n1c(=S)nc2ccccn21	46.2%	
CCOC(=O)/C=C/C(=O)OCC(=O)N1CCN(C(=O)c2ccco2)CC1	inactive: -34.6%	
Cc1csc(NC(=O)c2cc3c(s2)CCC3)n1	38%	
C=CC[C@@H](CC(=O)N(CCO)Cc1ccccc1)C(=O)N[C@@H](COC(=O)[C@H](CC=C)CC(=O)OC(C)(C)C)Cc1c[nH]c2ccccc12	inactive: 2.74%	
C(=C\c1nc(-c2ccccc2)no1)/c1ccccc1	154%	
O=c1cc(-c2ccc(O)c(O)c2)oc2ccc3ccccc3c12	51.7%	
c1ccc(-c2cn3c4c(sc3n2)CCCC4)cc1	-17.3%	
COC(=O)c1ccc(COc2cccc3c2CCN(Cc2ccccc2)C3=O)o1	inactive: -32.1%	
O=C(Nc1n[nH]c(C2CCCCC2)n1)C1CCCCC1	24.8%	
CCN(CC(=O)Nc1c(C(=O)OC)[nH]c2ccc(Cl)cc12)c1ccc2c(c1)OCO2	inactive: 3.64%	
Cc1ccc(/C=C/C(O)=C2/C(=O)N(C)C3(C)CC2c2ccccc2O3)cc1 (configuration not stated)	inactive: -31%	
CCOc1ccc2cc(C#N)c(SCC(=O)OC)nc2c1	42.1%	
Cc1cccc2cc(/C=N/Nc3ccc(C(=O)O)cc3)c(Cl)nc12	38.4%	
O=C(/C=C/Nc1ccccc1F)c1ccc(Br)cc1	31.7%	
N#C/C(=C/c1ccc(O)c(O)c1)C(=O)NCc1ccc(Cl)cc1	42.1%	
C/C(=N\NC(=O)C1(C)CC1(Br)Br)c1cccc(NC(=O)c2ccc(C)o2)c1 (configuration not stated)	inactive: -48.7%	
Cc1onc(-c2c(F)cccc2Cl)c1C(=O)NCc1ccc2c(c1)OCO2	inactive: -32.1%	
Clc1ccc(-c2cn3c(n2)-c2ccccc2C3)cc1Cl	110%	

Pulled by compound from the list above (2):
SMILES	activity change, positive = activation	Potency
NS(=O)(=O)c1ccc2nc(NC(=O)Nc3ccccc3F)sc2c1	68.1%	
COc1ccccc1NC(=O)c1sc(Cl)nc1C	inactive: -62.4%	
